In US20160041153:
Where cells or extracts were used, other partners may take part.

Chains of the proteins cited; added tags and fusions are not shown. Residues count along the entry.
UniProt P16422, 24-314: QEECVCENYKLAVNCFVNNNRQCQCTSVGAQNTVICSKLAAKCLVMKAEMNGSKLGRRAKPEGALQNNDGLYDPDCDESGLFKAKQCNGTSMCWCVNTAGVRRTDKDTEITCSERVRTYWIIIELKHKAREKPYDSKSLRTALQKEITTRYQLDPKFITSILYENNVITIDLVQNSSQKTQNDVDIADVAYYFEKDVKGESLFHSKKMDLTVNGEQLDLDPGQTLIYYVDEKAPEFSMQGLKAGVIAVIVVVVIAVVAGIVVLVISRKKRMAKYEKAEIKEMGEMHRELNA

Molecular target: EpCAM (UniProt P16422)
Assay: binding assay
Details: bead-captured plasma microvesicles from prostate cancer and normal samples, SAPE-labelled aptamer as detector, MFI readout; protein on the cell surface; label: biotin (bound to streptavidin-phycoerythrin); single-stranded DNA

“CCCCCCGAATCACATGACTTGGGCGGGGGTCG [EpCAM Aptamer 4]”: binds.
